Measurements taken from patent publication US20070112075A1 (Forest Laboratories, Inc., priority 2005, published 2007).
Counter-ions that a name gives are not always drawn. Some results were stated once for a whole list of compounds, not compound by compound.

Experiment: Storage stability (loss of potency) at 40° C. and 75% relative humidity
Type: physicochemical
Details: for degradation in potency: escitalopram oxalate and bupropion hydrochloride in intimate contact, one month of storage at 40° C. and 75% relative humidity

| Structure (SMILES) | degradation in potency | loss of potency (bupropion and escitalopram combined in one system (bead), stored for 1 month at 40° C. and 75% relative humidity) | loss in potency, in most instances (separate bupropion and escitalopram beads of Example 5, in most instances, stored for 1 month at 40° C. and 75% relative humidity) | loss in potency (separate bupropion and escitalopram beads of Example 5, stored for 1 month at 40° C. and 75% relative humidity) |
| --- | --- | --- | --- | --- |
| CC(NC(C)(C)C)C(=O)c1cccc(Cl)c1 (centres unmarked) [bupropion hydrochloride] | more than 10% |  |  |  |
| CN(C)CCC[C@@]1(c2ccc(F)cc2)OCc2cc(C#N)ccc21 [escitalopram, 1-[3-(dimethyl-amino)propyl]-1-(p-fluorophenyl)-5-phthalancarbonitrile] |  | more than 10% | less than 5% | less than 10% |
| CN(C)CCC[C@@]1(c2ccc(F)cc2)OCc2cc(C#N)ccc21 [escitalopram oxalate] | more than 10% |  |  |  |
